This series in a line: general procedure: peptide synthesis; HOAt/DIPEA or HOBT/DIPEA (carbonate activation with B4NPC). The note with it: conjugation step.

For the substance Mal-Val-Cit-PAB-PEG4-MMAF, the conjugation yield was found to be 22%.

The record behind these values is patent publication US20250114473A1 (priority 2023, published 2025).
